# Source: paper PMC7958614
# Amino acid sequences for entries named in this document (tags omitted). Residues count along the entry.
# UniProt P49682: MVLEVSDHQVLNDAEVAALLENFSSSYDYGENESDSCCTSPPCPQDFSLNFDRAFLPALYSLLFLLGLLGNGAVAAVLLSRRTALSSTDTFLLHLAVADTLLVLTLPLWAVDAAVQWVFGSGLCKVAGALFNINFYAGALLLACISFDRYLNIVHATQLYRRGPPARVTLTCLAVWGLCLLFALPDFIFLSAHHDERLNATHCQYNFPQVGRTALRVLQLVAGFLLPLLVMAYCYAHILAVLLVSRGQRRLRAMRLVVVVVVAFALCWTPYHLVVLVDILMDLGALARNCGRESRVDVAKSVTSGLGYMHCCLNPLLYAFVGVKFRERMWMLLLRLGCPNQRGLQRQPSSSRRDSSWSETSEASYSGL
# UniProt P13501, residues 24-91: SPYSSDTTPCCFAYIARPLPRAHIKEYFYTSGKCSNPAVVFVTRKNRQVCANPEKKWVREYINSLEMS
# UniProt P02778, residues 22-98: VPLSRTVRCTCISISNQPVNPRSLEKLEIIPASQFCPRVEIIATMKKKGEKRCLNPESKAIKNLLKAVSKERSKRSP
# UniProt P49407: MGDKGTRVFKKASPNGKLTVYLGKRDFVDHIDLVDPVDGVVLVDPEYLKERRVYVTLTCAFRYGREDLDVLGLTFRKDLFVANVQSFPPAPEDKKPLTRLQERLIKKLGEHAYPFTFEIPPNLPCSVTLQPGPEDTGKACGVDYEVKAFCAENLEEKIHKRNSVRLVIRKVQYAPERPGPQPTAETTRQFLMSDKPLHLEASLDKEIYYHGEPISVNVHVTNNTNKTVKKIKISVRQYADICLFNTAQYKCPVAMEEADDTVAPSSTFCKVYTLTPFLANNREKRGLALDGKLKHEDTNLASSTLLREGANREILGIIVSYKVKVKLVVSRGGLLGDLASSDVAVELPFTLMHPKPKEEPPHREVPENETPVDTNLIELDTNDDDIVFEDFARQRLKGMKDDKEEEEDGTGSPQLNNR
# UniProt P32121: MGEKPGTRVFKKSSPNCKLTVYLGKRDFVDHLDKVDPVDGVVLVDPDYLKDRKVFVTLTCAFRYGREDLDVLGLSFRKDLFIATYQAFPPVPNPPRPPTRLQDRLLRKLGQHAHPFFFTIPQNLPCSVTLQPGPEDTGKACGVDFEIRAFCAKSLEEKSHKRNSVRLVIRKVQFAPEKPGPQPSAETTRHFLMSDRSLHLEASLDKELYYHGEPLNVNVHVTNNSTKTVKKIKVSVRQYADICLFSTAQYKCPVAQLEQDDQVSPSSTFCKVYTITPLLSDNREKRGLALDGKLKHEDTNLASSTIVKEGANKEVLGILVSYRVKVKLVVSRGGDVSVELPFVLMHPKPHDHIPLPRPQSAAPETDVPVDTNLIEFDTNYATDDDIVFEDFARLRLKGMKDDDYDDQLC
# These are yes or no findings as the source states them, for the method shown. For some assays here: In cells and extracts the contact can be indirect. Some binding calls cover weakened binding; strength is not graded here. For some assays here: Where a sequence is shown, tags or fusion partners need not be part of it.
# T1: human ACKR2 on HEK293T cells (HEK-ACKR2) (human) (UniProt O00590)
# T1 sequence: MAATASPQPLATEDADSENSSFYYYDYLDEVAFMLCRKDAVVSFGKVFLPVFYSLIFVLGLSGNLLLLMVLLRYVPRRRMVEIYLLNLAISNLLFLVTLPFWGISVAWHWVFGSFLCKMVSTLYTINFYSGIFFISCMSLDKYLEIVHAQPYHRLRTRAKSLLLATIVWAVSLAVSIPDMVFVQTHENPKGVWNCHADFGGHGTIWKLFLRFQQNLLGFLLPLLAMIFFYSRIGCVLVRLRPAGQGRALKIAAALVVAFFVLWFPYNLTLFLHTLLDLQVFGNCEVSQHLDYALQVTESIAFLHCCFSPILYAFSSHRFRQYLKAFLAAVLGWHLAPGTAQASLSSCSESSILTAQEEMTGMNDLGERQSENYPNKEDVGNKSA
# T2: ACKR2 C-terminally fused to SmBiT (human) (UniProt O00590)
# T2 sequence: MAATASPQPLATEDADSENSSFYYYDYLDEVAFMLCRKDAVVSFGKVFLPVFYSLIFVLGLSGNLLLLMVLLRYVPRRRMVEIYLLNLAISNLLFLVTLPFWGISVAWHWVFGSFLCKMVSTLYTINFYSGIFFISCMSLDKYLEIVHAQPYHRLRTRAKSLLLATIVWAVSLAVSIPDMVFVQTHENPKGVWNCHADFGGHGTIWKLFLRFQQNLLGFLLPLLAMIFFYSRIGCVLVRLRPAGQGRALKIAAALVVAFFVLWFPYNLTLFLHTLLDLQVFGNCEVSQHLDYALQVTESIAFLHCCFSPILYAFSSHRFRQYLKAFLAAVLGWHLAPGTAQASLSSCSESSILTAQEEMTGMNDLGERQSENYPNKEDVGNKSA
# T3: ACKR2 C-terminally fused to mNeonGreen (human) (UniProt O00590)
# T3 sequence: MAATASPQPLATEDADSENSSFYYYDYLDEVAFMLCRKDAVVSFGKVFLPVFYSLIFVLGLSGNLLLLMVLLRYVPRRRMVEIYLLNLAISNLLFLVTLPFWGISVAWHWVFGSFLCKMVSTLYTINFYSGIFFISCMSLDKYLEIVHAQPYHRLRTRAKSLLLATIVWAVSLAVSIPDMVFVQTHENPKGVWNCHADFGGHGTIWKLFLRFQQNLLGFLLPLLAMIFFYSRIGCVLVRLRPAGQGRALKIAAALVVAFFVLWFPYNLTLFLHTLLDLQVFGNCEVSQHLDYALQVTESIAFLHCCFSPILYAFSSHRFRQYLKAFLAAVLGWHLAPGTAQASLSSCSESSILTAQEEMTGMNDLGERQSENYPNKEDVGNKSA
# T4: mouse ACKR2 on HEK293T cells (HEK-mACKR2) (mouse) (UniProt O08707)
# T4 sequence: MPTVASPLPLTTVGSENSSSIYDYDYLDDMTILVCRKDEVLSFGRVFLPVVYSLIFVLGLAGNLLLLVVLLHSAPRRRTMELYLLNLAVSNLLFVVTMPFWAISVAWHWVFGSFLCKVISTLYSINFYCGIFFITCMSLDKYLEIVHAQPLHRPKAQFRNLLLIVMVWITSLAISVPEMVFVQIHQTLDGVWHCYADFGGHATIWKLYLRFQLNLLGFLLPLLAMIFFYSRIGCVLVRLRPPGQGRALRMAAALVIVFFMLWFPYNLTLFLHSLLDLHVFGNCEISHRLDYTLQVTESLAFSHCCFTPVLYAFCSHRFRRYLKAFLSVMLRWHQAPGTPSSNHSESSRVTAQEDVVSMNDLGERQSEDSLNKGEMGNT
# T5: mouse ACKR2 on B16.F10 melanoma cells (mouse (endogenous in B16.F10)) (UniProt O08707)
# T5 sequence: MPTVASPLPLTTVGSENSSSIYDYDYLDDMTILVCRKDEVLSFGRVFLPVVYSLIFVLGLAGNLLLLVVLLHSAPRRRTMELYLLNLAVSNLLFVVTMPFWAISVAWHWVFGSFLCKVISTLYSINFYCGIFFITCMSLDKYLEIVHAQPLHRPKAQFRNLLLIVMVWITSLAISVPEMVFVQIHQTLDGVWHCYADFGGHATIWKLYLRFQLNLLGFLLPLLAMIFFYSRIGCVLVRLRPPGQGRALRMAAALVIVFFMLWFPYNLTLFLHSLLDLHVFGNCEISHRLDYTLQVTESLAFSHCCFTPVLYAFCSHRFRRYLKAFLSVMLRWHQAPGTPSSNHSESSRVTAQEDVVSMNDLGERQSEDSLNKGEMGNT
# How the values were obtained:
# [1] = target: T1, human ACKR2 on HEK293T cells (HEK-ACKR2) (human); test: flow cytometry on cells; binding competition on HEK-ACKR2 cells: CXCL10-Cy5 (100 ng/mL) with unlabelled chemokines (50 nM); signal without unlabelled chemokine = 100% binding; only the binder purified
# [2] = target: T1, human ACKR2 on HEK293T cells (HEK-ACKR2) (human); test: flow cytometry on cells; imaging flow cytometry (ImageStream): uptake of Cy5-labelled CXCL10 (100 nM), 45 min at 37 °C, by HEK293T, HEK-ACKR2 or HEK cells transfected with ACKR2 or CXCR3 vectors; with or without 15 min pre-treatment with unlabelled CCL5 (200 nM); only the binder purified
# [3] = target: T2, ACKR2 C-terminally fused to SmBiT (human); test: split reporter; NanoBiT in live U87.MG cells co-transfected with ACKR2-SmBiT and LgBiT-β-arrestin-1; signal on addition of chemokines
# [4] = target: T2, ACKR2 C-terminally fused to SmBiT (human); test: split reporter; NanoBiT in live HEK293T cells co-transfected with receptor-SmBiT and LgBiT-β-arrestin-1/2; signal on addition of chemokines, averaged over 20 min
# [5] = target: CXCR3 C-terminally fused to SmBiT (human) (UniProt P49682); test: as above
# [6] = target: T3, ACKR2 C-terminally fused to mNeonGreen (human); test: FRET or BRET; NanoBRET in live HEK293T cells co-transfected with receptor-mNeonGreen and Nanoluciferase-β-arrestin-1; signal on addition of chemokines
# [7] = target: CXCR3 construct of the NanoBRET β-arrestin-1 recruitment assay (human) (UniProt P49682); test: as above
# [8] = target: T4, mouse ACKR2 on HEK293T cells (HEK-mACKR2) (mouse); test: flow cytometry on cells; uptake of Cy5-labelled mCXCL10 (100 nM), 45 min at 37 °C, by HEK-mACKR2 or B16.F10 cells, with or without polyclonal goat anti-mACKR2 antibody (50 µg/mL) or goat IgG control; mean fluorescence intensity; only the binder purified
# [9] = target: T5, mouse ACKR2 on B16.F10 melanoma cells (mouse (endogenous in B16.F10)); test: as above
molecule,measurement,setting,value
CCL5 (unlabelled) (from UniProt P13501 24-91) (ligand),binding,[1],binds
Cy5-labelled CXCL10 (from UniProt P02778 22-98) (ligand),binding,[2],binds
same,binding,[1],binds
human β-arrestin-1 N-terminally fused to LgBiT (from UniProt P49407 1-418),binding,[3],binds
same,binding,[4],binds
same,binding,[5],binds
human β-arrestin-2 N-terminally fused to LgBiT (from UniProt P32121 1-409),binding,[4],binds
β-arrestin-1 N-terminally fused to Nanoluciferase (from UniProt P49407 1-418),binding,[6],binds
same,binding,[7],binds
"Cy5-labelled mouse CXCL10 (ligand, UniProt P17515 22-98, Cy5 label, site not stated) IPLARTVRCNCIHIDDGPVRMRAIGKLEIIPASLSCPRVEIIATMKKNDEQRCLNPESKTIKNLMKAFSQKRSKRAP",binding,[8],binds
same,binding,[9],binds
